Test results: the supplement of paper PMC10849652
This is one part of the list.

Protein sequences, listed by entry. Tags and fused reporters are not part of them. Lines headed by an entry give the natural chain unless they say otherwise; changes in a name come on top.
UniProt O60220: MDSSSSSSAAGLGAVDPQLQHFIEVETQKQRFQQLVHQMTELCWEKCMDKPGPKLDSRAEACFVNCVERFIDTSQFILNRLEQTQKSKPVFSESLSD
UniProt Q9BSF4: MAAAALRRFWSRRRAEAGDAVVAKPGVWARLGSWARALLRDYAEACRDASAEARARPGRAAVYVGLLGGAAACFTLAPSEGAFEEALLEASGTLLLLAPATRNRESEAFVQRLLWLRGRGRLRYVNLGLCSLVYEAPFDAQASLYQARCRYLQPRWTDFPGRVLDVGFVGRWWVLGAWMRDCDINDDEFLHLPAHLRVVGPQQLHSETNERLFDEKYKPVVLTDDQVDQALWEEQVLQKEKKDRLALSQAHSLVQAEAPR
UniProt Q3ZCQ8: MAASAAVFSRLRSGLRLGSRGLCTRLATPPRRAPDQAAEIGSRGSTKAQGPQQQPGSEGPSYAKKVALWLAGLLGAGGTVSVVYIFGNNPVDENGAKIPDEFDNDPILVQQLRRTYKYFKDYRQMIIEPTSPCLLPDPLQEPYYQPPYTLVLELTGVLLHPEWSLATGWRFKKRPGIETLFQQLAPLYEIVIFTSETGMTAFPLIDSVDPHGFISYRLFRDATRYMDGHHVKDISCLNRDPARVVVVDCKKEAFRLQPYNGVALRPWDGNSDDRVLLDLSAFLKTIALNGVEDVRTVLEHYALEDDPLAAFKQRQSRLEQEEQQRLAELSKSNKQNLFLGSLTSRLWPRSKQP
UniProt Q99805: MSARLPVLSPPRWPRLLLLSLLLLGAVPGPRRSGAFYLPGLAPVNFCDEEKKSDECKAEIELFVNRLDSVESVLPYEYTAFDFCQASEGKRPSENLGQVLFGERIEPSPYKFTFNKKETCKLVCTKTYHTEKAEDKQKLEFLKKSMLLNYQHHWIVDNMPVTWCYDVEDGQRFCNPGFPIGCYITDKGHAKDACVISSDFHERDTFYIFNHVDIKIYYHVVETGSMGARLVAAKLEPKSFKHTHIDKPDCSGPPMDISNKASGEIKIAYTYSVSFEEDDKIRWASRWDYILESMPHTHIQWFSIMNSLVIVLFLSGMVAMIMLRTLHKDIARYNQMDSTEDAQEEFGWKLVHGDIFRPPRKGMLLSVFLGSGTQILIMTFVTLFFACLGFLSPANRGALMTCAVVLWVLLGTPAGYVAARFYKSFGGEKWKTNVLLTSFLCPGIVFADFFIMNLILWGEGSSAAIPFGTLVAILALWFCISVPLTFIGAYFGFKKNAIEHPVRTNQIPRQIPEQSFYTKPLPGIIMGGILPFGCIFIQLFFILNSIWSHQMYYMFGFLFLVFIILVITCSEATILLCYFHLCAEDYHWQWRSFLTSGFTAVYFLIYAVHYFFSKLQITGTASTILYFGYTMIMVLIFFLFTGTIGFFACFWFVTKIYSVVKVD
UniProt Q6YHU6: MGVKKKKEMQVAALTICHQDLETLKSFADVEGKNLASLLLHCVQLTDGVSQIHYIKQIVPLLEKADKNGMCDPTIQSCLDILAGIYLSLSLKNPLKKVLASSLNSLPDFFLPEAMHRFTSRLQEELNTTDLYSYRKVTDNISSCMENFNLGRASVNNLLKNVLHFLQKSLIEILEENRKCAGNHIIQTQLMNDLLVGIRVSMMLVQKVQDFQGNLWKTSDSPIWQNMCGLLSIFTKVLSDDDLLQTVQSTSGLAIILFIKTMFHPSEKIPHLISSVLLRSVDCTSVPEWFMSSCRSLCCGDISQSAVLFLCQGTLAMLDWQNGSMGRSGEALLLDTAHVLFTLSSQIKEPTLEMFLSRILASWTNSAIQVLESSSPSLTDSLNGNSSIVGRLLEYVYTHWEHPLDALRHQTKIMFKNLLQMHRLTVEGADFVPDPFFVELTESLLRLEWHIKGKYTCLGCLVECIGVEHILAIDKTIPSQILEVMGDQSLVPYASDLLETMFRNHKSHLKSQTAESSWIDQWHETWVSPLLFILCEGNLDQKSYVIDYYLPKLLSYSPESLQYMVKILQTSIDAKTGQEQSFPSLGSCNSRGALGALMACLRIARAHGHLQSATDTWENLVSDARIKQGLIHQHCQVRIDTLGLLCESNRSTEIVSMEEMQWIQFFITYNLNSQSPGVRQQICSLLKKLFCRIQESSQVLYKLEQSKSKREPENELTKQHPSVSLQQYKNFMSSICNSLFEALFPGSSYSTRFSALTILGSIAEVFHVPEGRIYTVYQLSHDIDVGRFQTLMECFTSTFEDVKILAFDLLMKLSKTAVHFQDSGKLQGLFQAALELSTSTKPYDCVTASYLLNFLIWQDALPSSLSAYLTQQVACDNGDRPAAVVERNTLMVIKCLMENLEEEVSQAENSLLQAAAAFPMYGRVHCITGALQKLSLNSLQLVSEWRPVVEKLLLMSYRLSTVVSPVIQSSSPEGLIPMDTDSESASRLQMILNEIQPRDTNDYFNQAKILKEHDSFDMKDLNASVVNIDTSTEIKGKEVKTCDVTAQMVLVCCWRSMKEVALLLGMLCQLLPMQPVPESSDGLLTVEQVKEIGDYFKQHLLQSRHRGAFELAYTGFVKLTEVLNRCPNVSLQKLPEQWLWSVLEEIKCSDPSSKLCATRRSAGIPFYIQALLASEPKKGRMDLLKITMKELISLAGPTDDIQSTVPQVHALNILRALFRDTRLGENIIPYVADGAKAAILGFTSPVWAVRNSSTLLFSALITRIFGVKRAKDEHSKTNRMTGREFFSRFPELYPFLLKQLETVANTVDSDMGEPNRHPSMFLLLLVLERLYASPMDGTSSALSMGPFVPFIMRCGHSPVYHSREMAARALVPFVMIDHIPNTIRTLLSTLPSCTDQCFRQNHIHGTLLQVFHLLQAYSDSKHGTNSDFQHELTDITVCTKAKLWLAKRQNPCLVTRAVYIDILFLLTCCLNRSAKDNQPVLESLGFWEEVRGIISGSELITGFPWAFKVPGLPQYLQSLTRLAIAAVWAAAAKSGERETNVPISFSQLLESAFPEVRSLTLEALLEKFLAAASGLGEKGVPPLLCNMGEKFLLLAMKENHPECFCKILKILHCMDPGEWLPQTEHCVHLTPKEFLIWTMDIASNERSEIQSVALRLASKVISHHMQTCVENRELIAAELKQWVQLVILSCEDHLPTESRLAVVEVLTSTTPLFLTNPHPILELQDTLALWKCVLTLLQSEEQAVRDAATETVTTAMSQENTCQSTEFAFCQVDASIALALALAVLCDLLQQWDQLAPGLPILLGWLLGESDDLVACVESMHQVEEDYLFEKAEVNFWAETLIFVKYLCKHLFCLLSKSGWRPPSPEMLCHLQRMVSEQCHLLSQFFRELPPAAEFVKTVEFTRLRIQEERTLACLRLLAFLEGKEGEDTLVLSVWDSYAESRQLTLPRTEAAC
UniProt O43422: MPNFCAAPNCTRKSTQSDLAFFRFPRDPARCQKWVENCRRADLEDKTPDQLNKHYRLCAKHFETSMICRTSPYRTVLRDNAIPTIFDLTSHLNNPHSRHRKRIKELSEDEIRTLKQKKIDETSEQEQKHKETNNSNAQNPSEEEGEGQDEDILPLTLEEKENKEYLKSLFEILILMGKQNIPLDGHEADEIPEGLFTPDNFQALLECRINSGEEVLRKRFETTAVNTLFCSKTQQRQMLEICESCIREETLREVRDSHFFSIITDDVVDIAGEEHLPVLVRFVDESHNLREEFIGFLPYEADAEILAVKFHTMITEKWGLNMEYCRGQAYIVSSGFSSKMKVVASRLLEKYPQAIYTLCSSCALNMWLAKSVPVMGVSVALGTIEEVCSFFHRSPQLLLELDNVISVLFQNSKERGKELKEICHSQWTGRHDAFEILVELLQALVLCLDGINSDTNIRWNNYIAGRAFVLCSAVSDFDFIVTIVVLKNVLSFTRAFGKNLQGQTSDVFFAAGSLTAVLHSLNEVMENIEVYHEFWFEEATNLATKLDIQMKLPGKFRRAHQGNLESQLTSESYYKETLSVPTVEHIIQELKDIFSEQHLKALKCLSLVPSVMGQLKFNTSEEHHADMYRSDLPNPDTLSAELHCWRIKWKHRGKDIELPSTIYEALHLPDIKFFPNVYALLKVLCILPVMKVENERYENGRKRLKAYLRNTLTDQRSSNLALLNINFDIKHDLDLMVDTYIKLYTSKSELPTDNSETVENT
UniProt Q9UM00: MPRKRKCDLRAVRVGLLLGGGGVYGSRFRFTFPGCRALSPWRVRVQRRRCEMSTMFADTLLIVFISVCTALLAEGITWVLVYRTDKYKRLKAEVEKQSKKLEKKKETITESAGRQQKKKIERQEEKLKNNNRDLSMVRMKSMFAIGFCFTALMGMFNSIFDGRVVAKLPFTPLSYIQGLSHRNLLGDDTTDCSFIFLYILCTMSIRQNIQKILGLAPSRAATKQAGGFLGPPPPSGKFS
UniProt Q3LXA3: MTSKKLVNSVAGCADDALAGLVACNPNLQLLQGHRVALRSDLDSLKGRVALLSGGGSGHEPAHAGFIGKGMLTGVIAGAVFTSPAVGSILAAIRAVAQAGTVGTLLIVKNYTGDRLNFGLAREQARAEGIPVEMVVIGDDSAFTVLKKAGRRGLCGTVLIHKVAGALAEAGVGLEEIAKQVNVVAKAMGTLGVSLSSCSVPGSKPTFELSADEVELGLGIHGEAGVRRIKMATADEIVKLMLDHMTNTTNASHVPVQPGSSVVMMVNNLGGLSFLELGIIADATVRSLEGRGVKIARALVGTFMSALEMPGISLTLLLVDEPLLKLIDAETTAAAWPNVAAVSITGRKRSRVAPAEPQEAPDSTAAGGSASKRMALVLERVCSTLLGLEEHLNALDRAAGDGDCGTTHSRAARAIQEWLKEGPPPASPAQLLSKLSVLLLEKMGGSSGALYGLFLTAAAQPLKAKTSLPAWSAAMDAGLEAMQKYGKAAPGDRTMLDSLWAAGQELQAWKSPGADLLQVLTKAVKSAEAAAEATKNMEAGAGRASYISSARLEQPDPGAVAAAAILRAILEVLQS
UniProt Q86XR7, whole entry, looked up: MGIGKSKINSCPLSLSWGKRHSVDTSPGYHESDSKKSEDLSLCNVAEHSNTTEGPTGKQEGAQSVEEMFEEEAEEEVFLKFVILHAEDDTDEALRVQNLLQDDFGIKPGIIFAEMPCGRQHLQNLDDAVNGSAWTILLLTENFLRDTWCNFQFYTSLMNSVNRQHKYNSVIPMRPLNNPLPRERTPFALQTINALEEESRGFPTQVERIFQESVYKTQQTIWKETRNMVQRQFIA
UniProt Q9BVW5: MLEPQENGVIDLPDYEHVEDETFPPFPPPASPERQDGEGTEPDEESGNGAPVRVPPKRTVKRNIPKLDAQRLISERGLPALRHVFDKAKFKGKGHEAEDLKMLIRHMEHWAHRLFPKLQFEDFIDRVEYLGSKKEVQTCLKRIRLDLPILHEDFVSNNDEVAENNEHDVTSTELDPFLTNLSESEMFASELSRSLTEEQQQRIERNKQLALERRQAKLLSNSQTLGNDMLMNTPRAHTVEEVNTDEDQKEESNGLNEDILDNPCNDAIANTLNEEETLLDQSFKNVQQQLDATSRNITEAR
UniProt Q86WV6: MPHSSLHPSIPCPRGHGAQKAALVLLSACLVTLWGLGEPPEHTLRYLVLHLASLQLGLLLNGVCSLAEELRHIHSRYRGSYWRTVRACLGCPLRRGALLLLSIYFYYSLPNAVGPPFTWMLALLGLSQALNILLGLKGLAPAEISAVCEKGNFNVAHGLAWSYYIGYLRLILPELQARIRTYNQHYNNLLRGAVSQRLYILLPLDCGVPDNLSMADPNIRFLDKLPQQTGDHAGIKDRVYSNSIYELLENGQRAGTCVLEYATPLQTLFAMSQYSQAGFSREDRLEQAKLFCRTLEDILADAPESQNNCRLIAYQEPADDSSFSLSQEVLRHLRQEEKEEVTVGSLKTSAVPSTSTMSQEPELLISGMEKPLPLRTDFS
UniProt Q8IYQ7: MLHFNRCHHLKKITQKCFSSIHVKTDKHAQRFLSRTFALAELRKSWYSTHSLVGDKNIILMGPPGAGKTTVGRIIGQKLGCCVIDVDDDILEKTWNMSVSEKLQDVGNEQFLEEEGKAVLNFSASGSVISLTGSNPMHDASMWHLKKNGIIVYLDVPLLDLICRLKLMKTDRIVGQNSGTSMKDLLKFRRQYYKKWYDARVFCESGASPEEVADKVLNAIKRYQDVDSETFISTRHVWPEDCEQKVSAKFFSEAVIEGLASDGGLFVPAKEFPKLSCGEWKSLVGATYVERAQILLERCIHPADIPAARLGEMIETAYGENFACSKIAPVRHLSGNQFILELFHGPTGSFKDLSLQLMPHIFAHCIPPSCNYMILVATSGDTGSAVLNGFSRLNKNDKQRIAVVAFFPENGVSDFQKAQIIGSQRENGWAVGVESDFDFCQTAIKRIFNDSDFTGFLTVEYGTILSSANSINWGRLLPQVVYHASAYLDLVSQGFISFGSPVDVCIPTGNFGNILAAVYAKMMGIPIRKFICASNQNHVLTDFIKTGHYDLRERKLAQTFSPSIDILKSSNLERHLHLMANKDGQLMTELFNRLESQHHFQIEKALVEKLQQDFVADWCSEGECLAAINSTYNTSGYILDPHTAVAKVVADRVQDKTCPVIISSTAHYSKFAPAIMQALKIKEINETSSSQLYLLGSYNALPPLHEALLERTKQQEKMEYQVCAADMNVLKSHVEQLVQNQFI

What was measured:
Assay in all cases: log2 fold change, soluble protein after heating vs DMSO (PISA); higher = thermal stabilisation; K562 lysate, 10 uM; active = over 0.2 and 3.5 SD of the protein, either way, in both replicates (recomputed)
alvocidib = compound: CN1CC[C@H](c2c(O)cc(O)c3c(=O)cc(-c4ccccc4Cl)oc23)[C@H](O)C1 [alvocidib]
Outline: (§1)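 Log-two fold change in thermal stability relative to solvent controls is reported from duplicates. For each sample, crude K562 extract from dounce-homogenised pellets in PBS pH 7.4 with 1 mM MgCl2, at 1 mg/mL protein, was treated with 10 μM compound for 30 min. Aliquots heated for 3 min across 48°C-58°C were pooled, brought to 0.5% NP-40 at 4°C and cleared at 21,000xg for 90 min. The supernatant was quantified by TMTpro 16plex LC-MS/MS with channel sums equalised.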

Tubastatin A = compound: CN1CCc2c(c3ccccc3n2Cc2ccc(C(=O)NO)cc2)C1 [Tubastatin A]
Outline: as §1

[1] = compound: CNC(=O)C1=CC=CC=C1NC2=NC(=NC=C2Cl)NC3=C(C=C(C=C3)N4CCOCC4)OC
Outline: as §1

defactinib = compound: CNC(=O)c1ccc(Nc2ncc(C(F)(F)F)c(NCc3nccnc3N(C)S(C)(=O)=O)n2)cc1 [defactinib]
Outline: as §1

[2] = compound: CNc1nc(-c2ccc3c(N)n[nH]c3c2)cc(N2C[C@@H](C(=O)NC3CCCCC3)CC[C@H]2C)n1
Outline: as §1

encorafenib = compound: COC(=O)N[C@@H](C)CNc1nccc(-c2cn(C(C)C)nc2-c2cc(Cl)cc(NS(C)(=O)=O)c2F)n1 [encorafenib]
Outline: as §1

[3] = compound: COC(=O)[C@H](CCSC)NC(=O)C1=C(C=C(C=C1)NC[C@H](CS)N)C2=CC=CC=C2
Outline: as §1

alisertib = compound: COc1cc(Nc2ncc3c(n2)-c2ccc(Cl)cc2C(c2c(F)cccc2OC)=NC3)ccc1C(=O)O [alisertib]
Outline: as §1

[4] = compound: COc1cc2nc(-c3cc(F)ccc3O)nc(N[C@@H]3CNC[C@H]3C(C)(C)O)c2cc1OC
Outline: as §1

gefitinib = compound: COc1cc2ncnc(Nc3ccc(F)c(Cl)c3)c2cc1OCCCN1CCOCC1 [gefitinib]
Outline: as §1

lapatinib = compound: CS(=O)(=O)CCNCc1ccc(-c2ccc3ncnc(Nc4ccc(OCc5cccc(F)c5)c(Cl)c4)c3c2)o1 [lapatinib]
Outline: as §1

pictilisib = compound: CS(=O)(=O)N1CCN(Cc2cc3nc(-c4cccc5[nH]ncc45)nc(N4CCOCC4)c3s2)CC1 [pictilisib]
Outline: as §1

crizotinib = compound: C[C@@H](Oc1cc(-c2cnn(C3CCNCC3)c2)cnc1N)c1c(Cl)ccc(F)c1Cl [crizotinib]
Outline: as §1

[5] = compound: C[C@H](C1=CC=C(C=C1)C(=O)NC2=C3C=CNC3=NC=C2)N
Outline: as §1

duvelisib = compound: C[C@H](Nc1ncnc2nc[nH]c12)c1cc2cccc(Cl)c2c(=O)n1-c1ccccc1 [duvelisib]
Outline: as §1

gandotinib = compound: Cc1cc(Nc2cc(CN3CCOCC3)c3nc(C)c(Cc4ccc(Cl)cc4F)n3n2)n[nH]1 [gandotinib]
Outline: as §1

tozasertib = compound: Cc1cc(Nc2cc(N3CCN(C)CC3)nc(Sc3ccc(NC(=O)C4CC4)cc3)n2)n[nH]1 [tozasertib]
Outline: as §1

doramapimod = compound: Cc1ccc(-n2nc(C(C)(C)C)cc2NC(=O)Nc2ccc(OCCN3CCOCC3)c3ccccc23)cc1 [doramapimod]
Outline: as §1

bafetinib = compound: Cc1ccc(NC(=O)c2ccc(CN3CC[C@H](N(C)C)C3)c(C(F)(F)F)c2)cc1Nc1nccc(-c2cncnc2)n1 [bafetinib]
Outline: as §1

[6] = compound: Cc1cccc(CC(=O)N2CCc3c2ccc(-c2cn(C)c4ncnc(N)c24)c3F)n1
Outline: as §1

Measured: log2 fold change

TMEM106B (UniProt Q9NUM4)
inactive: alvocidib -0.064 | Tubastatin A 0.012 | [1] 0.052 | defactinib 0.028 | [2] -0.105 | encorafenib 0.014 | [3] -0.043 | alisertib -0.043 | [4] 0.004 | gefitinib -0.046 | lapatinib 0.049 | pictilisib -0.025 | crizotinib 0.006 | [5] -0.029 | duvelisib 0.059 | gandotinib -0.011 | tozasertib 0.018 | doramapimod 0.025 | bafetinib -0.008 | [6] 0.015

THOP1 (UniProt P52888)
inactive: alvocidib 0.004 | Tubastatin A 0.021 | [1] -0.009 | defactinib -0.006 | [2] 0.004 | encorafenib -0.014 | [3] 0.02 | alisertib 0.001 | [4] 0.007 | gefitinib -0.01 | lapatinib -0.03 | pictilisib -0.006 | crizotinib 0.014 | [5] -0.044 | duvelisib 0.011 | gandotinib 0.028 | tozasertib -0.013 | doramapimod 0.015 | bafetinib -0.006 | [6] 0.01

TIMM8A (UniProt O60220)
inactive: alvocidib 0.072 | Tubastatin A 0.1 | [1] 0.12 | defactinib -0.005 | [2] 0.03 | encorafenib 0.087 | [3] 0.038 | alisertib -0.027 | [4] -0.033 | gefitinib -0.245 | lapatinib -0.035 | pictilisib -0.052 | crizotinib -0.033 | [5] 0.126 | duvelisib 0.109 | gandotinib -0.188 | tozasertib 0.171 | doramapimod -0.007 | bafetinib -0.036 | [6] -0.152

TIMM29 (UniProt Q9BSF4)
inactive: alvocidib -0.015 | Tubastatin A 0.094 | [1] 0.038 | defactinib 0.051 | [2] 0.034 | encorafenib 0.004 | [3] 0.059 | alisertib 0.011 | [4] -0.004 | gefitinib -0.019 | lapatinib -0.028 | pictilisib -0.016 | crizotinib 0.044 | [5] 0.002 | duvelisib -0.01 | gandotinib 0.042 | tozasertib -0.071 | doramapimod -0.009 | bafetinib -0.032 | [6] 0.06

TIMM50 isoform 2 (UniProt Q3ZCQ8)
inactive: alvocidib 0.015 | Tubastatin A 0.011 | [1] -0.024 | defactinib -0.017 | [2] 0.008 | encorafenib 0.017 | [3] -0.028 | alisertib 0.063 | [4] -0.019 | gefitinib 0.012 | lapatinib -0.036 | pictilisib -0.013 | crizotinib -0.023 | [5] 0.01 | duvelisib 0.011 | gandotinib -0.147 | tozasertib 0.01 | doramapimod 0.024 | bafetinib 0.041 | [6] 0.022

TM9SF2 (UniProt Q99805)
inactive: alvocidib -0.047 | Tubastatin A -0.005 | [1] 0 | defactinib 0.001 | [2] 0.009 | encorafenib 0.042 | [3] -0.036 | alisertib 0.002 | [4] 0.008 | gefitinib 0.021 | lapatinib -0.057 | pictilisib -0.019 | crizotinib -0.007 | [5] -0.094 | duvelisib -0.006 | gandotinib 0.036 | tozasertib -0.008 | doramapimod 0.014 | bafetinib -0.041 | [6] 0.083

Random excerpt: 2 records from the list.
TMEM106B (UniProt Q9NUM4)
inactive: alvocidib -0.064 | Tubastatin A 0.012 | [1] 0.052 | defactinib 0.028 | [2] -0.105 | encorafenib 0.014 | [3] -0.043 | alisertib -0.043 | [4] 0.004 | gefitinib -0.046 | lapatinib 0.049 | pictilisib -0.025 | crizotinib 0.006 | [5] -0.029 | duvelisib 0.059 | gandotinib -0.011 | tozasertib 0.018 | doramapimod 0.025 | bafetinib -0.008 | [6] 0.015

TIMM8A (UniProt O60220)
inactive: alvocidib 0.072 | Tubastatin A 0.1 | [1] 0.12 | defactinib -0.005 | [2] 0.03 | encorafenib 0.087 | [3] 0.038 | alisertib -0.027 | [4] -0.033 | gefitinib -0.245 | lapatinib -0.035 | pictilisib -0.052 | crizotinib -0.033 | [5] 0.126 | duvelisib 0.109 | gandotinib -0.188 | tozasertib 0.171 | doramapimod -0.007 | bafetinib -0.036 | [6] -0.152

Additional results

THADA (UniProt Q6YHU6)
inactive: alvocidib -0.002 | Tubastatin A -0.165 | [1] 0.008 | defactinib 0.014 | [2] -0.013 | encorafenib 0.022 | [3] 0.031 | alisertib 0.01 | [4] 0.012 | gefitinib 0.001 | lapatinib -0.042 | pictilisib -0.06 | crizotinib -0.073 | [5] -0.041 | duvelisib -0.02 | gandotinib -0.064 | tozasertib -0.003 | doramapimod -0.002 | bafetinib -0.041 | [6] 0.086

THAP12 (UniProt O43422)
inactive: alvocidib -0.022 | Tubastatin A -0.049 | [1] 0.031 | defactinib -0.001 | [2] 0.042 | encorafenib 0.008 | [3] -0.016 | alisertib 0.052 | [4] -0.016 | gefitinib 0.023 | lapatinib -0.008 | pictilisib 0.009 | crizotinib -0.063 | [5] 0.11 | duvelisib 0.03 | gandotinib -0.043 | tozasertib 0.008 | doramapimod -0.005 | bafetinib -0.066 | [6] 0.018

TMCO1 (UniProt Q9UM00)
inactive: alvocidib 0.072 | Tubastatin A 0.016 | [1] 0.002 | defactinib -0.002 | [2] 0.045 | encorafenib -0.011 | [3] -0.067 | alisertib 0.025 | [4] -0.108 | gefitinib 0.044 | lapatinib -0.043 | pictilisib -0.025 | crizotinib 0.011 | [5] 0.031 | duvelisib -0.02 | gandotinib -0.077 | tozasertib 0.047 | doramapimod -0.018 | bafetinib -0.059 | [6] 0.047

TKT isoform 2 (UniProt P29401)
inactive: alvocidib 0.009 | Tubastatin A 0.026 | [1] -0.026 | defactinib -0.004 | [2] -0.011 | encorafenib 0 | [3] -0.038 | alisertib 0.006 | [4] 0.013 | gefitinib -0.017 | lapatinib 0.003 | pictilisib 0.006 | crizotinib 0.042 | [5] -0.039 | duvelisib -0.022 | gandotinib 0.03 | tozasertib 0.006 | doramapimod -0.009 | bafetinib 0.011 | [6] -0.009

TKFC (UniProt Q3LXA3)
inactive: alvocidib -0.004 | Tubastatin A 0.027 | [1] 0.02 | defactinib 0 | [2] 0.017 | encorafenib -0.038 | [3] 0.024 | alisertib 0.02 | [4] 0.001 | gefitinib -0.028 | lapatinib -0.011 | pictilisib 0.02 | crizotinib -0.027 | [5] -0.039 | duvelisib -0.001 | gandotinib 0.031 | tozasertib -0.012 | doramapimod 0.016 | bafetinib 0.02 | [6] 0.022

TICAM2 isoform 2 (UniProt Q86XR7)
inactive: alvocidib -0.006 | Tubastatin A 0.007 | [1] -0.006 | defactinib -0.018 | [2] -0.191 | encorafenib 0.063 | [3] -0.042 | alisertib 0.029 | [4] -0.013 | gefitinib -0.02 | lapatinib -0.039 | pictilisib -0.024 | crizotinib -0.033 | [5] -0.04 | duvelisib -0.002 | gandotinib 0.027 | tozasertib 0.001 | doramapimod -0.041 | bafetinib -0.049 | [6] -0.016

TMEM109 (UniProt Q9BVC6)
inactive: alvocidib 0.011 | Tubastatin A 0.054 | [1] 0.002 | defactinib 0.013 | [2] 0.067 | encorafenib 0.032 | [3] -0.083 | alisertib -0.011 | [4] 0.027 | gefitinib 0.017 | lapatinib -0.025 | pictilisib -0.004 | crizotinib 0.032 | [5] 0.034 | duvelisib -0.016 | gandotinib 0.025 | tozasertib 0.009 | doramapimod 0.014 | bafetinib 0.011 | [6] -0.037

TIPIN (UniProt Q9BVW5)
inactive: alvocidib -0.057 | Tubastatin A -0.039 | [1] 0.019 | defactinib -0.028 | [2] -0.086 | encorafenib 0.032 | [3] -0.039 | alisertib 0.029 | [4] -0.045 | gefitinib 0.003 | lapatinib 0.027 | pictilisib -0.002 | crizotinib 0.042 | [5] -0.104 | duvelisib 0.012 | gandotinib 0.062 | tozasertib 0.034 | doramapimod -0.029 | bafetinib -0.053 | [6] 0.065

TMEM173 (UniProt Q86WV6)
inactive: alvocidib -0.04 | Tubastatin A -0.1 | [1] -0.029 | defactinib 0.04 | [2] 0.096 | encorafenib 0.062 | [3] -0.118 | alisertib -0.135 | [4] -0.041 | gefitinib 0.073 | lapatinib -0.007 | pictilisib -0.001 | crizotinib 0.023 | [5] -0.03 | duvelisib -0.041 | gandotinib -0.114 | tozasertib 0.031 | doramapimod -0.107 | bafetinib 0.03 | [6] 0.028

THNSL1 (UniProt Q8IYQ7)
inactive: alvocidib -0.018 | Tubastatin A 0.009 | [1] -0.129 | defactinib -0.036 | [2] -0.115 | encorafenib 0.011 | [3] -0.032 | alisertib -0.033 | [4] 0.018 | gefitinib 0.024 | lapatinib 0.026 | pictilisib -0.039 | crizotinib -0.041 | [5] 0.062 | duvelisib 0.017 | gandotinib -0.051 | tozasertib 0.035 | doramapimod -0.003 | bafetinib 0.013 | [6] 0.012
